Results are given in words; binding and its absence hold for the method and conditions named. A result given as binding can be weak or reduced; the word gives no strength.
Experiments:
[1] = target: T1, TubR of pBc10987 (centromere-binding protein) (Bacillus cereus (plasmid pBc10987)) (UniProt Q74P25); test: native gel or EMSA; 32P-labelled pro12 DNA (65171-65577 nt); TubR preincubated with pro12, then BcY, BcYmut or BcYΔ added; both purified
T1 sequence: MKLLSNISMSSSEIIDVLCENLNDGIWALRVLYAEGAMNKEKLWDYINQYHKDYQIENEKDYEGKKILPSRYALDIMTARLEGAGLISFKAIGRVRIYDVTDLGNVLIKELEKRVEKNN

[2] = target: T1, TubR of pBc10987 (centromere-binding protein) (Bacillus cereus (plasmid pBc10987)); test: native gel or EMSA; 32P-labelled pro2 DNA (65321-65577 nt, lacks BcY-binding sites) with TubR, BcY or both; 6% polyacrylamide gel; both purified

Substance | binding [1] | binding [2]
BcYΔ (TubY residues 1-182, lacks the C-terminal tail) (Bacillus cereus (plasmid pBc10987)) (domain or fragment) | binds weakly | –
Full-length TubY from B. cereus (BcY) (Bacillus cereus (plasmid pBc10987)) | – | binds
